PubChem BioAssay AID330 (DTP/NCI, 2004)
The list does not hold the whole screen: it is rich in T/C values a quarter to a half above the control, in often repeated tests (any T/C) and in doses without a T/C. Further doses and runs are listed elsewhere. T/C: endpoint of the treated group in % of that of the vehicle group. Some doses have a count of surviving animals in place of a T/C: the source holds a T/C of zero for them, seemingly a mark for toxic or unscored doses. Some survivor counts are full or nearly so, which does not show that the dose was tolerated: survival well below the control is almost never listed, so the zero probably covers shortened survival too. Counts of survivors are from the toxicity check (mostly the fifth day) where no day follows; animals may have died later. Schedule codes are those of the source, read here as Q, the interval in days (D) or hours (H), X, the number of doses. Some entries hold several experiments; the values are given in rising order. For survival time, this PubChem deposit counts one and a half times the control or more as active, and values a quarter to a half above the control carry no call in these data; other NCI protocols may use other cut-offs. Some T/C values are followed by the survivors on the day toxicity was checked, most often the fifth; where none is given, no animal had died by that day. Marks such as (2×) count equal records among those shown.

System: P388 leukemia ip, CD2F1 mice, survival T/C
Assay: NCI In Vivo Anticancer Drug Screen. Data for tumor model P388 Leukemia (intraperitoneal) in CD2F1 (CDF1) mice
Conditions: T/C endpoint: median survival time, higher T/C = longer survival
[1] = dose: 200.0 mg/kg/injection, schedule: Q01DX009 (ip), vehicle: saline
[2] = dose: 800.0 mg/kg/injection, schedule: Q01DX005 (ip), vehicle: saline
[3] = dose: 200.0 mg/kg/injection, schedule: Q01DX009 (ip), vehicle: Klucel (hydroxypropylcellulose) (HPC)
[4] = dose: 200.0 mg/kg/injection, schedule: Q01DX009 (ip), vehicle: saline with Tween-80

CCOC(=O)C(N)CSC(=O)NC (configuration not stated)
T/C (dose: 41.6 mg/kg/injection, schedule: Q03HX024 (ip), vehicle: saline): 134 % of control
T/C (dose: 50.0 mg/kg/injection, schedule: Q01DX009 (ip), vehicle: saline): 130 % of control
T/C (dose: 55.5 mg/kg/injection, schedule: Q01DX009 (ip), vehicle: saline): 127 % of control
T/C (dose: 58.0 mg/kg/injection, schedule: Q01DX009 (ip), vehicle: saline): 136 % of control
T/C (dose: 88.0 mg/kg/injection, schedule: Q01DX009 (ip), vehicle: saline): 140 % of control
T/C (dose: 100.0 mg/kg/injection, schedule: Q01DX005 (ip), vehicle: saline, evaluated on day 30): 104, 120, 124, 126, 133 % of control
T/C (dose: 100.0 mg/kg/injection, schedule: Q01DX005 (ip), vehicle: saline, evaluated on day 60): 120 % of control
T/C (dose: 100.0 mg/kg/injection, schedule: Q01DX009 (ip), vehicle: saline): 140 % of control
T/C (dose: 111.1 mg/kg/injection, schedule: Q01DX009 (ip), vehicle: saline): 138 % of control
T/C (dose: 125.0 mg/kg/injection, schedule: Q03HX008 (ip), vehicle: saline): 135 % of control
T/C (dose: 200.0 mg/kg/injection, schedule: Q01DX005 (ip), vehicle: saline, evaluated on day 30): 103, 136, 138 % of control (3×)
T/C (dose: 200.0 mg/kg/injection, schedule: Q01DX005 (ip), vehicle: saline, evaluated on day 60): 131 % of control
T/C [1]: 147 % of control
T/C (dose: 222.2 mg/kg/injection, schedule: Q01DX009 (oral), vehicle: saline): 131 % of control [7 of 10 alive]
survivor count (dose: 250.0 mg/kg/injection, schedule: Q03HX008 (ip), vehicle: saline): 1 of 10
survivor count (dose: 333.2 mg/kg/injection, schedule: Q03HX024 (ip), vehicle: saline): 0 of 10
T/C (dose: 333.3 mg/kg/injection, schedule: Q04DX003 (ip), vehicle: saline): 128 % of control
T/C (dose: 400.0 mg/kg/injection, schedule: Q01DX005 (ip), vehicle: saline, evaluated on day 30): 103, 150, 150 [4 of 5 alive], 165, 169 % of control
T/C (dose: 400.0 mg/kg/injection, schedule: Q01DX005 (ip), vehicle: saline, evaluated on day 60): 145 % of control
T/C (dose: 400.0 mg/kg/injection, schedule: Q01DX005 (iv), vehicle: saline): 127 % of control [9 of 10 alive]
survivor count (dose: 500.0 mg/kg/injection, schedule: Q03HX008 (ip), vehicle: saline): 0 of 10
T/C [2]: 96 % of control
survivor count [2]: 0 of 5, 0 of 6, 2 of 10, 4 of 10
survivor count (dose: 800.0 mg/kg/injection, schedule: Q01DX005 (iv), vehicle: saline): 0 of 10
survivor count (dose: 888.8 mg/kg/injection, schedule: Q01DX009 (ip), vehicle: saline): 0 of 10
survivor count (dose: 1000.0 mg/kg/injection, schedule: Q01DX001 (iv), vehicle: saline): 0 of 10
survivor count (dose: 1333.3 mg/kg/injection, schedule: Q04DX003 (ip), vehicle: saline): 6 of 10
survivor count (dose: 1600.0 mg/kg/injection, schedule: Q01DX005 (ip), vehicle: saline): 0 of 10
survivor count (dose: 2000.0 mg/kg/injection, schedule: Q01DX001 (ip), vehicle: saline): 0 of 10
survivor count (dose: 2000.0 mg/kg/injection, schedule: Q01DX001 (iv), vehicle: saline): 0 of 10
survivor count (dose: 4000.0 mg/kg/injection, schedule: Q01DX001 (ip), vehicle: saline): 0 of 10
survivor count (dose: 4000.0 mg/kg/injection, schedule: Q01DX001 (iv), vehicle: saline): 0 of 10

CC(=O)c1ccc(NC(=O)C#N)cc1
survivor count (dose: 30.0 mg/kg/injection, schedule: Q01DX005 (ip), vehicle: saline with Tween-80): 0 of 6
survivor count (dose: 60.0 mg/kg/injection, schedule: Q01DX005 (ip), vehicle: saline with Tween-80): 0 of 6
survivor count (dose: 120.0 mg/kg/injection, schedule: Q01DX005 (ip), vehicle: saline with Tween-80): 0 of 6
survivor count (dose: 240.0 mg/kg/injection, schedule: Q01DX005 (ip), vehicle: saline with Tween-80): 0 of 6

CCCCCCCCN(C)N=Nc1ccccc1C(=O)O
survivor count [3]: 2 of 6

C[C@@]12C(=O)OC(=O)[C@]1(C)[C@H]1CC[C@@H]2O1
survivor count (dose: 1.0 mg/kg/injection, schedule: Q01DX005 (ip), vehicle: acetone): 2 of 5
survivor count (dose: 2.0 mg/kg/injection, schedule: Q01DX005 (ip), vehicle: acetone): 0 of 5
survivor count (dose: 4.0 mg/kg/injection, schedule: Q01DX005 (ip), vehicle: acetone): 0 of 5

C/C=C/C(O)CC1CCCCN1 (configuration not stated)
survivor count (dose: 200.0 mg/kg/injection, schedule: Q04DX003 (ip), vehicle: saline): 0 of 6
survivor count (dose: 400.0 mg/kg/injection, schedule: Q04DX003 (ip), vehicle: saline): 0 of 6

O=C1C=CC(O)C2OC12 (configuration not stated)
survivor count (dose: 20.0 mg/kg/injection, schedule: Q04DX002 (ip), vehicle: saline): 0 of 6
survivor count (dose: 100.0 mg/kg/injection, schedule: Q04DX002 (ip), vehicle: saline): 0 of 6
survivor count (dose: 200.0 mg/kg/injection, schedule: Q04DX002 (ip), vehicle: saline): 0 of 6
survivor count (dose: 400.0 mg/kg/injection, schedule: Q04DX002 (ip), vehicle: saline): 0 of 6

COC(=O)C12C(=O)C(C(=O)OC)(C(c3ccccc3)=C1c1ccccc1)C1OC(=O)OC12 (configuration not stated)
survivor count [4]: 5 of 6

CCCCCC(CN(C)C)C(=O)/C=C/c1ccc(O)cc1 (configuration not stated)
survivor count [1]: 1 of 6

C[n+]1ccc2ccccc2c1C#N
survivor count (dose: 50.0 mg/kg/injection, schedule: Q04DX003 (ip), vehicle: saline): 4 of 6

CCOC(=O)[C]1([Sb]([CH3])[CH3])N=NC(C(=O)OC)=C1C(=O)OC (configuration not stated)
T/C (dose: 200.0 mg/kg/injection, schedule: Q04DX003 (ip), vehicle: saline with Tween-80): 147 % of control

CC12CC3(C)CC(C)(C1)CC(C(Cl)C(=O)O)(C2)C3 (configuration not stated)
survivor count (dose: 100.0 mg/kg/injection, schedule: Q01DX009 (ip), vehicle: suspension in saline): 6 of 6
survivor count (dose: 200.0 mg/kg/injection, schedule: Q01DX009 (ip), vehicle: suspension in saline): 2 of 6

C=CCN=C(NC#N)SC
survivor count [3]: 5 of 6

CN(C)C1CCC(NC2=CC(=O)C(NC3CCC(N(C)C)CC3)=CC2=O)CC1 (configuration not stated)
survivor count (dose: 12.5 mg/kg/injection, schedule: Q01DX005 (ip), vehicle: distilled water + alcohol): 0 of 5
survivor count (dose: 25.0 mg/kg/injection, schedule: Q01DX005 (ip), vehicle: distilled water + alcohol): 0 of 5
survivor count (dose: 50.0 mg/kg/injection, schedule: Q01DX005 (ip), vehicle: distilled water + alcohol): 0 of 5
survivor count (dose: 100.0 mg/kg/injection, schedule: Q01DX005 (ip), vehicle: distilled water + alcohol): 0 of 5
survivor count (dose: 200.0 mg/kg/injection, schedule: Q01DX005 (ip), vehicle: distilled water + alcohol): 0 of 5

CC1CN=C(c2cccc(NC(=O)NCCCCNC(=O)Nc3cccc(C4=NCC(C)N4)c3)c2)N1 (configuration not stated)
survivor count (dose: 25.0 mg/kg/injection, schedule: Q01DX005 (ip), vehicle: saline with Tween-80): 0 of 6
survivor count (dose: 50.0 mg/kg/injection, schedule: Q01DX005 (ip), vehicle: saline with Tween-80): 1 of 6
survivor count (dose: 100.0 mg/kg/injection, schedule: Q01DX005 (ip), vehicle: saline with Tween-80): 0 of 6
survivor count (dose: 200.0 mg/kg/injection, schedule: Q01DX005 (ip), vehicle: saline with Tween-80): 0 of 6

Nc1nc(N)c2nc(CN(CCO)c3ccc(C(=O)NC(CCC(=O)O)C(=O)O)cc3)cnc2n1 (configuration not stated)
T/C (dose: 0.8 mg/kg/injection, schedule: Q01DX009 (ip), vehicle: Klucel (hydroxypropylcellulose) (HPC)): 144 % of control
survivor count (dose: 8.0 mg/kg/injection, schedule: Q01DX009 (ip), vehicle: Klucel (hydroxypropylcellulose) (HPC)): 6 of 6
survivor count (dose: 16.0 mg/kg/injection, schedule: Q01DX009 (ip), vehicle: Klucel (hydroxypropylcellulose) (HPC)): 6 of 6

CCC1CN2CCc3cc(OC)c(OC)cc3C2CC1C#N (configuration not stated)
survivor count (dose: 100.0 mg/kg/injection, schedule: Q01DX009 (ip), vehicle: saline with Tween-80): 5 of 6
survivor count [4]: 3 of 6
